One substance from paper PMC8110579 can be followed below.

Protein sequences, listed by entry. Tags and fused reporters are not part of them. Lines headed by an entry give the natural chain unless they say otherwise; changes in a name come on top.
UniProt Q8TDG2: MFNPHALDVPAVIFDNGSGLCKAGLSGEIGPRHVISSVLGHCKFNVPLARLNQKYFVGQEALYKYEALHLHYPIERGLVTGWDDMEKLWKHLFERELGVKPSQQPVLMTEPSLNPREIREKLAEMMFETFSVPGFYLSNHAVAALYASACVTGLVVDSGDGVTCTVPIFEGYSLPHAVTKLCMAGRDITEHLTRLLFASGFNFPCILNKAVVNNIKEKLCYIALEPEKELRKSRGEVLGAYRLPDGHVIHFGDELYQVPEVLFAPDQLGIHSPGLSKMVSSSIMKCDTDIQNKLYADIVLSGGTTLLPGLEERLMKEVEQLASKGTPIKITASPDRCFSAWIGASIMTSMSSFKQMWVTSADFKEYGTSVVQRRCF
UniProt P23258: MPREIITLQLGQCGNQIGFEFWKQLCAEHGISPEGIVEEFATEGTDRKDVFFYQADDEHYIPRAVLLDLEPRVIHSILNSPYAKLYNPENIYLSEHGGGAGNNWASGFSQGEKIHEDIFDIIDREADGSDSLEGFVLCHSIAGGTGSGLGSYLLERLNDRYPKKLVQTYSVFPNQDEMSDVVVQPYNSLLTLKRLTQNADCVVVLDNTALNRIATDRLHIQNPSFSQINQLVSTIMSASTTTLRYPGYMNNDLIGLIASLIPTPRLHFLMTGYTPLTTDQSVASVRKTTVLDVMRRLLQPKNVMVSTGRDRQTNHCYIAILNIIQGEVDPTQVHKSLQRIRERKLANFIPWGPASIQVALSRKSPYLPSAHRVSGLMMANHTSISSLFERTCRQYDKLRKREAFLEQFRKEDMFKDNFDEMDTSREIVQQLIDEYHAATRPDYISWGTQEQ

The target of experiment [1] is Actin-Related Protein-Testis1 (ARP-T1), wild type, tagged with DDK (human) (UniProt Q8TDG2). In words: co-IP; ARP-T1-DDK from transduced HeLa (Fig. 3a) and hTERT-RPE1 (Fig. 3b) cells precipitated with anti-FLAG M2 affinity gel overnight at 4 °C and 1 h at RT, five washes with TBS; immunoblot with antisera to the co-precipitated proteins.
The target in experiment [2] is ARP-T1 (untagged, detected with ARP-T1 antibody) (human (endogenous in hTERT-RPE1)) (UniProt Q8TDG2). In words: proximity ligation; proximity ligation assays (Supplementary Fig. 1f, g); cells and antibodies not told in the text shown.

These are yes or no findings as the source states them, for the method shown. Binding seen in cells or lysates may run through a third protein. Binding calls can cover weak binding; strength is not graded here.

Consider gamma-tubulin (from UniProt P23258), for which the binding result in experiment [1] and in experiment [2] was “binds” throughout.
